These results are taken from PubChem BioAssay AID2685 (National Center for Advancing Translational Sciences (NCATS), 2010).

This is one part of the list. Further columns of the screen follow, without active or inactive calls. Compounds called inactive in the main read-out are mostly missing here. The note in brackets gives the kind of curve behind each potency; many fits are weak.

This assay in a line: qHTS Assay for Lipid Storage Modulators in Drosophila S3 Cells.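 For cell number change: cells counted by Cell Tracker Red CMTPX staining in the red channel.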 Conditions: BODIPY lipid droplet fluorescence, 18-24 h; for cell number change: measured here: cell count max response, cells fed with added oleic acid. The method in brief: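 Laser-scanning cytometry quantifies lipid droplet accumulation (500–530 nm total intensity; droplet/cell object ratio) in oleic acid-fed (400 uM added) Drosophila S3 cells treated with a concentration series. 20 uM Triacsin C defined 100% inhibition.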
On the technique in general: qHTS replaces the single test concentration by a dilution series.

Where [1] appears, read: measured here: cell number channel AC50, cells fed with added oleic acid.
The mark [2] stands for this setting: measured here: lipid fluorescence (Fed channel) AC50, cells fed with added oleic acid.

The term AC50 denotes the concentration giving half of the maximal activity seen. A lower AC50 goes with activity at low concentration.

`Cc1ccc(SCCNC(=O)/C=C/c2cccc([N+](=O)[O-])c2)cc1`: the cell number change stood at 43.9%. The AC50 under setting [1] is 5170 nM [rising, partial curve]. Also, the AC50 under setting [2] is 4.11 nM [rising, partial curve, poor fit].
As for `CCCS(=O)(=O)N1CCCC(C(=O)NCc2ccc3c(c2)OCO3)C1` (centres undefined), the cell number change was -32.3%.
Regarding `CCOc1ccc(OCC)c(NC(=O)CCNS(=O)(=O)c2cc(Br)cnc2N)c1`, the AC50 under setting [2] is 1640 nM [falling, partial curve].
Consider `CCc1nnc(NC(=O)CSc2nnc(-c3ccc(S(=O)(=O)N4CCCC4)cc3)n2CC)s1`, for which the cell number change was -19.2%. In addition, the AC50 under setting [2] is 29100 nM [falling, single point].
On to `C(=C\c1ccccc1)/C=N/N1CCN(c2ccccn2)CC1`, for which the cell number change was 43.5%. The AC50 under setting [1] is 2910 nM [rising, full curve]. For the same compound, the AC50 under setting [2] is 3660 nM [rising, partial curve].
For `CC1Cc2ccccc2N1C(=O)CCn1c(=O)oc2ccccc21` (centres undefined), the cell number change was 30.3%.
Consider `Cc1cc(N/N=C/c2ccccc2Br)nc2ccccc12`, for which the cell number change worked out at 17.8%. The AC50 under setting [2] was 1640 nM [rising, partial curve, poor fit].
Take `CCN(CC)C(=O)c1oc2ccc(S(=O)(=O)N3CCCCCC3)cc2c1C`: the cell number change was 10.9%. Also, the concentration at half-maximal activity (AC50) under setting [1] was 1030 nM [rising, full curve].
On to `COc1ccc2c(c1)CCc1c(C(=O)NCCCn3ccnc3)noc1-2`, for which the cell number change was -10.1%. Also, under setting [2], the AC50 is 411 nM [falling, full curve].
`Cc1cc(C(=O)CCl)c(C)n1-c1c(C)n(C)n(-c2ccccc2)c1=O`: the cell number change was -87.1%. Also, the AC50 under setting [1] was 18400 nM [falling, partial curve]. The AC50 under setting [2] is 4610 nM [falling, full curve].
As to `CC(C)OC(=O)C1C(=O)CC(C)(O)C(C(=O)OC(C)C)C1c1ccccc1` (centres undefined), the cell number change was -7.84%. Besides, the AC50 under setting [2] is 4110 nM [falling, single point].
Turning to `O=C(CN(Cc1ccco1)C(=O)c1ccccc1F)Nc1ccccc1C(F)(F)F`, the cell number change was -0.129%. In addition, the AC50 under setting [1] was 146 nM [rising, full curve, poor fit]. In addition, the AC50 under setting [2] is 29100 nM [falling, single point].
Turning to `CC(C)[C@@]1(c2ccccc2)ON(c2ccccc2C(F)(F)F)C1=O`, the cell number change was -38.5%. Besides, the AC50 under setting [1] is 4110 nM [falling, single point]. In addition, the AC50 under setting [2] is 9200 nM [falling, single point].
As for `O=C(O)CCc1nn2c3ccccc3n(Cc3ccccc3F)c2nc1=O`, the cell number change was -22.1%. Besides, the AC50 under setting [1] is 5.17 nM [falling, full curve, poor fit]. Besides, the AC50 under setting [2] is 116 nM [falling, full curve].
Regarding `O=C(N/N=C/c1ccc2c(c1)OCO2)c1cccnc1`, the cell number change worked out at 1.26%.
As for `CC1Cc2ccccc2N1C(=S)Nc1cccc(S(=O)(=O)N(C)C)c1` (centres undefined), the cell number change was 66.4%. For the same compound, the AC50 under setting [1] was 259 nM [rising, full curve]. Also, the AC50 under setting [2] was 29100 nM [rising, partial curve].
Consider `CC(NS(=O)(=O)c1ccccc1Cl)C1CC2CCC1C2` (centres undefined), for which the cell number change was -3.97%.
Consider `Cc1ccsc1C1C(C#N)=C(N)OC2=C1C(=O)CC(C)(C)C2` (centres undefined), for which the cell number change turned out to be 14.8%.
For `NS(=O)(=O)c1ccc(NC(=O)NC2CCCCC2)cc1`, the cell number change was -32%. Further, under setting [1], the AC50 was 651 nM [falling, full curve, poor fit].
In the case of `COc1ccc2nc(NC(=O)CN(c3ccc(C)cc3)S(=O)(=O)c3c(C)nn(C)c3C)sc2c1`, the cell number change was found to be 3.89%.
In the case of `COc1cccc(-c2csc(N3CCN(CC(=O)NNC(=O)c4ccc(Br)cc4)CC3)n2)c1`, the cell number change stood at 41.6%. Besides, the half-maximal activity concentration (AC50) under setting [2] was 29100 nM [rising, single point].
Turning to `CC(C)(CN1CCCCC1)NS(=O)(=O)c1ccc(Cl)cc1`, the cell number change was -37.7%. The AC50 under setting [1] was 23100 nM [falling, single point]. For the same compound, the half-maximal activity concentration (AC50) under setting [2] is 5800 nM [falling, full curve].
Consider `CO/N=C(\c1ccccc1)c1cccnc1`, for which the cell number change came to 7.42%. Also, under setting [2], the AC50 is 29100 nM [rising, single point].
Regarding `O=C(Nc1cc2c(cc1C(=O)O)OCCCO2)c1ccc(F)cc1F`, the cell number change is -28.9%.
Regarding `CCOC(=O)c1ccc(NC(=O)C2CCCN(S(=O)(=O)c3ccc(F)cc3)C2)cc1` (centres undefined), the cell number change was 88.3%. The AC50 under setting [1] was 2060 nM [rising, partial curve, poor fit]. Also, under setting [2], the AC50 was 2910 nM [rising, partial curve, poor fit].
With `c1ccc(-c2nnc(-c3ccncc3)nc2-c2ccccc2)cc1`, the AC50 is, setting by setting: under setting [1], 1840 nM [falling, partial curve]; under setting [2], 1840 nM [falling, partial curve].
Turning to `Cn1c(SCC(=O)Nc2cccc(F)c2)nc2c(c1=O)SCC2`, the cell number change was -5.1%. For the same compound, the AC50 under setting [2] was 16400 nM [rising, single point].
With `CC(C)c1ccc(S(=O)(=O)N2CCN(C(=O)n3ccnc3)CC2)cc1`, the cell number change was -6.49%. Further, the AC50 under setting [2] was 820 nM [falling, full curve, poor fit].
For the compound `Cc1c(C(=O)N(C)CCc2cnn(C)c2)oc2c(F)cccc12`, the cell number change is -35.4%. The AC50 under setting [1] was 130 nM [falling, full curve].
In the case of `CN1CCN(c2ccc(NC(=O)c3cc(S(N)(=O)=O)ccc3N3CCOCC3)cc2)CC1`, the cell number change is -14.5%. Besides, the AC50 under setting [2] was 6510 nM [rising, single point].
Turning to `COc1ccc(S(=O)(=O)N2CCCC2CNC(=O)C(=O)NCc2ccccc2)cc1` (centres undefined), the cell number change is 72.2%. Also, the AC50 under setting [1] is 16400 nM [rising, partial curve]. Also, the AC50 under setting [2] is 2060 nM [rising, partial curve].
As to `Cc1ccc(OCCC(=O)OCC(=O)Nc2c(C)nn(-c3ccccc3)c2C)cc1`, under setting [2], the AC50 is 6510 nM [falling, single point].
Consider `O=C(COC(=O)c1ccc2ccccc2c1O)NCC(F)(F)F`, for which the cell number change is -13.5%. Besides, under setting [2], the AC50 was 20.6 nM [falling, partial curve, poor fit].
On to `CCn1c(SCC(=O)N2CCCCC2C)nnc1-c1ccco1` (centres undefined), for which the cell number change is -13.2%. Further, under setting [2], the AC50 was 35500 nM [falling, single point].
Consider `CC(C)CN(C(=O)COC(=O)c1cnc(Cl)c(Cl)c1)c1c(N)n(Cc2ccccc2)c(=O)[nH]c1=O`, for which the cell number change worked out at 8.33%. For the same compound, the AC50 under setting [1] is 291 nM [falling, full curve, poor fit]. For the same compound, the AC50 under setting [2] is 6510 nM [falling, partial curve, poor fit].
Consider `O=C(c1ccc(CSc2nc3ccncc3[nH]2)cc1)N1CCCCCC1`, for which the cell number change was -11.6%. The AC50 under setting [2] is 651 nM [falling, full curve, poor fit].
